According to article PMC11544903:
No constants are given. Whether binding was seen depends on the method and setting. In cells and extracts the contact can be indirect. Some binding calls cover weakened binding; strength is not graded here. For some assays here: Tags and fused reporters may be left off the sequences shown. Blank lines part the entries; values can stand above or below the molecule they belong to.

Amino acid sequences for entries named in this document (tags omitted).
UniProt P12004: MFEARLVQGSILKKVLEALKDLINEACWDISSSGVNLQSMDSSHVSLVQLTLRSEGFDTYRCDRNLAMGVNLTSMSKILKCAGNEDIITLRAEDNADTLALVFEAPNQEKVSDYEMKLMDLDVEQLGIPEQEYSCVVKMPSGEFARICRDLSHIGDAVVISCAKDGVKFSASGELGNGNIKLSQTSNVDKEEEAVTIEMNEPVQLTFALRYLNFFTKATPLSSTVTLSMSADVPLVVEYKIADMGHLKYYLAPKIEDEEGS
UniProt Q96GD4: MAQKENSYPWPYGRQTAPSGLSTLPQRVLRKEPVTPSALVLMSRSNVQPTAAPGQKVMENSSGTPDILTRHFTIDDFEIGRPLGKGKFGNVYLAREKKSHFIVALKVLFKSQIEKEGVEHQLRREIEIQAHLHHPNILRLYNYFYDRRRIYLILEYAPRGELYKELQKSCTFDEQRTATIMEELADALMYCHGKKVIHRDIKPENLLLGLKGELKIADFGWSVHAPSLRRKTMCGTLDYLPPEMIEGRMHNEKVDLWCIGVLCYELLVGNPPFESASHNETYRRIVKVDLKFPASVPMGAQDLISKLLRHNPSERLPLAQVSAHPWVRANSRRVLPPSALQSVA
UniProt Q9NQS7: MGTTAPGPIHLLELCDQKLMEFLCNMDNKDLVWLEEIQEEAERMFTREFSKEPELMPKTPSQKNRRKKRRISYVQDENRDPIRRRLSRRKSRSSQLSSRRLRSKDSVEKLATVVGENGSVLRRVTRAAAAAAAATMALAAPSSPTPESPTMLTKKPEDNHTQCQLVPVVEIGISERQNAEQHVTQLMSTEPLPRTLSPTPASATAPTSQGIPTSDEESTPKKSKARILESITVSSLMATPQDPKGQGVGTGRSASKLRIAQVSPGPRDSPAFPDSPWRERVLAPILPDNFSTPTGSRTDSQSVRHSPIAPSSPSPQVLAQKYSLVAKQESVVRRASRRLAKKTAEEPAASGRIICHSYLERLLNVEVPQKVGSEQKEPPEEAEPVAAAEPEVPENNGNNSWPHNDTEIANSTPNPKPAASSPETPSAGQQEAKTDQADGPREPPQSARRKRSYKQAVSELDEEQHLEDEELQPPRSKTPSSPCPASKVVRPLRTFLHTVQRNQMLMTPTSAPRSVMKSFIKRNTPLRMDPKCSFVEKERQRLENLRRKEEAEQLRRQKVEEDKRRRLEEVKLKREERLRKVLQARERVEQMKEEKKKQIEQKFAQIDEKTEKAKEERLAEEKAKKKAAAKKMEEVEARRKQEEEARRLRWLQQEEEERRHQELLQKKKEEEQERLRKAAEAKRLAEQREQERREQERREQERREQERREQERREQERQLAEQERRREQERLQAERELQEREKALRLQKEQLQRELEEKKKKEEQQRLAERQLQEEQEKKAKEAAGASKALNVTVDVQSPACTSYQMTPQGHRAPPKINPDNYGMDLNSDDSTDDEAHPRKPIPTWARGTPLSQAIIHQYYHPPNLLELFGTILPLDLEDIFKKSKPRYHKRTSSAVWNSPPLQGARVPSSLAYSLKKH
UniProt O15392: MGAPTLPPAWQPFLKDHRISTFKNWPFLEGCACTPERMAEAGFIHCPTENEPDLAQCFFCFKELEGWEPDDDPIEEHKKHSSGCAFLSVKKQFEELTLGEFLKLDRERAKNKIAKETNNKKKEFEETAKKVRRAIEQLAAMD

Legend:
[1] = target: T1, FLAG-tagged polymerase Eta (FLAG-Pol η) (UniProt Q9Y253); assay: co-IP; 293T cells transfected with FLAG-Pol η, with or without myc-tagged CPC members; irradiated with 10 Gy and incubated for 2 h; chromatin extraction before immunoprecipitation of FLAG-Pol η; immunoblot
T1 sequence: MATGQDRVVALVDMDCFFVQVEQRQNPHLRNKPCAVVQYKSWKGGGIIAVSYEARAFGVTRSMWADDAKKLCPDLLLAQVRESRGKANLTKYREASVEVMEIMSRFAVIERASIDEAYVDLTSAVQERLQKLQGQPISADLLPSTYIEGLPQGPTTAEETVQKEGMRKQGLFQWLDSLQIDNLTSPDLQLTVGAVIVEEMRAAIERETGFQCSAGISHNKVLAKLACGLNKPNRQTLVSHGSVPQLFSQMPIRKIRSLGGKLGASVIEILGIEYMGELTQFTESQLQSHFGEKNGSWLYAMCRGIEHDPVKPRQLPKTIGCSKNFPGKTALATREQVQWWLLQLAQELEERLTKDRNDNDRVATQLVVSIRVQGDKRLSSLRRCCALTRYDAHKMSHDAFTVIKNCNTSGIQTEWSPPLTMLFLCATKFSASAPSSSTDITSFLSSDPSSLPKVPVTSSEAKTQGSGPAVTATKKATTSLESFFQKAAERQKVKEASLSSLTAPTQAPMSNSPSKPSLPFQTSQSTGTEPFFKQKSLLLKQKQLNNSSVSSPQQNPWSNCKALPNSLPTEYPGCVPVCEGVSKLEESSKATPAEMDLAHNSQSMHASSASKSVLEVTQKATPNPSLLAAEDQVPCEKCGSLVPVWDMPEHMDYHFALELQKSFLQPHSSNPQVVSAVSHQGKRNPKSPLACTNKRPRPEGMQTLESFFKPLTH

[2] = target: proliferating cell nuclear antigen (PCNA), endogenous in HeLa cells (human (endogenous in HeLa)) (UniProt P12004); assay: proximity ligation; in situ PLA (Duolink, mouse/rabbit probes) of endogenous proteins in HeLa cells; signals at distances of less than 40 nm; PLA signals per nucleus counted in >150 cells
[3] = target: T2, polymerase η (Pol η) precipitated with Pol η-specific antibodies from 293T lysates (human (endogenous in 293T)) (UniProt Q9Y253); assay: co-IP; 293T cells transfected with POLDIP2 wildtype-, T216E- or AuroraB-GFP; lysates immunoprecipitated with Pol η-specific antibodies and immunoblotted for GFP
T2 sequence: T1 sequence

[4] = target: GFP-PCNA (UniProt P12004); assay: co-IP; 293T cells co-transfected with GFP-PCNA and myc-INCENP wt or PIPmut; lysates in interaction buffer (50 mM Tris pH 8, 150 mM NaCl, 5 mM EDTA, 0.5% NP40, 1 mM DTT); precipitated with magnetic α-GFP beads (μMACS), uncoupled beads as control; immunoblot

- binding [1]: binds
Molecule: Aurora B kinase, endogenous in 293T cells (from UniProt Q96GD4 1-344) (enzyme)

- binding [2]: binds
Molecule: Aurora B kinase, endogenous in HeLa cells (from UniProt Q96GD4 1-344) (enzyme)

- binding [2]: binds
Molecule: INCENP, endogenous in HeLa cells (from UniProt Q9NQS7 1-918)

- binding [2]: binds
B1: Borealin, endogenous in HeLa cells (protein, UniProt Q53HL2 1-280)
chain: MAPRKGSSRVAKTNSLRRRKLASFLKDFDREVEIRIKQIESDRQNLLKEVDNLYNIEILRLPKALREMNWLDYFALGGNKQALEEAATADLDITEINKLTAEAIQTPLKSAKTRKVIQVDEMIVEEEEEEENERKNLQTARVKRCPPSKKRTQSIQGKGKGKRSSRANTVTPAVGRLEVSMVKPTPGLTPRFDSRVFKTPGLRTPAAGERIYNISGNGSPLADSKEIFLTVPVGGGESLRLLASDLQRHSIAQLDPEALGNIKKLSNRLAQICSSIRTHK

- binding [3]: binds
B2: POLDIP2 wildtype-GFP (protein, UniProt Q9Y2S7 52-368)
chain: SSRNRPEGKVLETVGVFEVPKQNGKYETGQLFLHSIFGYRGVVLFPWQARLYDRDVASAAPEKAENPAGHGSKEVKGKTHTYYQVLIDARDCPHISQRSQTEAVTFLANHDDSRALYAIPGLDYVSHEDILPYTSTDQVPIQHELFERFLLYDQTKAPPFVARETLRAWQEKNHPWLELSDVHRETTENIRVTVIPFYMGMREAQNSHVYWWRYCIRLENLDSDVVQLRERHWRIFSLSGTLETVRGRGVVGREPVLSKEQPAFQYSSHVSLQASSGHMWGTFRFERPDGSHFDVRIPPFSLESNKDEKTPPSGLHW

More lines, now with the values behind:

Molecule: AuroraB-GFP (from UniProt Q96GD4 1-344) (enzyme)
- binding [3]: binds

Molecule: Survivin, endogenous in 293T cells (from UniProt O15392 1-142)
- binding [1]: binds

Molecule: Survivin, endogenous in HeLa cells (from UniProt O15392 1-142)
- binding [2]: binds

Molecule: myc-INCENP wildtype (from UniProt Q9NQS7 1-918)
- binding [4]: binds

Molecule: myc-tagged Aurora B (from UniProt Q96GD4 1-344) (enzyme)
- binding [1]: binds

Molecule: myc-tagged Survivin (from UniProt O15392 1-142)
- binding [1]: binds
